Like-named read-outs stand apart in the source and are kept apart here. No constants are given. Whether binding was seen depends on the method and setting. In cells and extracts the contact can be indirect. Some entries that bind do so weakly or less than the wild type.
What was measured:
Test in all cases: co-IP
[1] = target: β2 integrin subunit of Mac-1 (αMβ2, CD11b/CD18, CR3) (human) (UniProt P05107)
[2] = target: β1 integrin subunit (human (endogenous in HEK293)) (UniProt P05556)
[3] = target: β2 integrin subunit of Mac-1 (αMβ2, CD11b/CD18, CR3) (human) (UniProt P05107); remark: listed apart in the source
[4] = target: CD47 (human (endogenous in HEK293 and in human monocytes)) (UniProt Q08722)
[5] = target: mouse αM integrin subunit of Mac-1 (mouse (endogenous in peritoneal macrophages and IC-21)) (UniProt P05555)

Chains of the proteins cited; added tags and fusions are not shown. Residues count along the entry.
UniProt P05107, residues 23-769: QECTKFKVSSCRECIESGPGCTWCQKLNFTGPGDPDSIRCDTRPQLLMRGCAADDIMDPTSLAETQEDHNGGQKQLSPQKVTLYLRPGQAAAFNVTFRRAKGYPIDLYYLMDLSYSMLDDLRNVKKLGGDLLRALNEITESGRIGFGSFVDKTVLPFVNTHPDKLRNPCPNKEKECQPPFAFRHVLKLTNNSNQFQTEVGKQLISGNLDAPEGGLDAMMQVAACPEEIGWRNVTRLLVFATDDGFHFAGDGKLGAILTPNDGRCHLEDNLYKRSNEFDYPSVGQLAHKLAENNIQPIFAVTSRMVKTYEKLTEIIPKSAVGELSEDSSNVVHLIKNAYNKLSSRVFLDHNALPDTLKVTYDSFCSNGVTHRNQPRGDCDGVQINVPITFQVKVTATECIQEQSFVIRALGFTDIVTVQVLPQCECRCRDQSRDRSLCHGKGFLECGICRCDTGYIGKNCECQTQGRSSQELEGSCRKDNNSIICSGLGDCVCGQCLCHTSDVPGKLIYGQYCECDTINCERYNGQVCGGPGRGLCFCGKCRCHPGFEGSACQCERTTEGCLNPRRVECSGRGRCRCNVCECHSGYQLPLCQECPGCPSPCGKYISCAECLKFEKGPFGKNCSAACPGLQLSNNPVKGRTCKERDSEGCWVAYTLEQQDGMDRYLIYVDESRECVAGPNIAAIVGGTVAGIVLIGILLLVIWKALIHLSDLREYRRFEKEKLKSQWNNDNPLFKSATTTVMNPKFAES
UniProt P05556: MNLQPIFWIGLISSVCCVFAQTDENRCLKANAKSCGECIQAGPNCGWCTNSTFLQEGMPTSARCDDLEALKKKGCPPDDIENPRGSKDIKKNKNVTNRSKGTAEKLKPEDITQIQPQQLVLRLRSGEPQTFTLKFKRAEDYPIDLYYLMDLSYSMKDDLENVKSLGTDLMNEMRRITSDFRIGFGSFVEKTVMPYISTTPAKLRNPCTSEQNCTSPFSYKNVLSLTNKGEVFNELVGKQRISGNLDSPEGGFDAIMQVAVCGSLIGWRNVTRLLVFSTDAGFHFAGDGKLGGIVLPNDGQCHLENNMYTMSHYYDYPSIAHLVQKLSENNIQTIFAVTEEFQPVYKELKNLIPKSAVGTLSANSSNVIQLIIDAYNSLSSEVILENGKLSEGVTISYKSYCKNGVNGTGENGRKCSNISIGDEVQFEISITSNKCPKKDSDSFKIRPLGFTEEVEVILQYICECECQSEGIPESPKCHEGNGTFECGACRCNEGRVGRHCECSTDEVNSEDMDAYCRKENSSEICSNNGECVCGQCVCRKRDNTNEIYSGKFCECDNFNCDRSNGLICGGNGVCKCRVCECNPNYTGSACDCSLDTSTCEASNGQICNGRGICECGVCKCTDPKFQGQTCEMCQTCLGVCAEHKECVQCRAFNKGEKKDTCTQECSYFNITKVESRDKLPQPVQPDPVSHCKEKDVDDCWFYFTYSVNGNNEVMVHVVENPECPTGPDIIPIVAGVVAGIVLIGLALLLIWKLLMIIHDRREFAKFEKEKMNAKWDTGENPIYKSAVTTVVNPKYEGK
UniProt P05555, residues 17-1153: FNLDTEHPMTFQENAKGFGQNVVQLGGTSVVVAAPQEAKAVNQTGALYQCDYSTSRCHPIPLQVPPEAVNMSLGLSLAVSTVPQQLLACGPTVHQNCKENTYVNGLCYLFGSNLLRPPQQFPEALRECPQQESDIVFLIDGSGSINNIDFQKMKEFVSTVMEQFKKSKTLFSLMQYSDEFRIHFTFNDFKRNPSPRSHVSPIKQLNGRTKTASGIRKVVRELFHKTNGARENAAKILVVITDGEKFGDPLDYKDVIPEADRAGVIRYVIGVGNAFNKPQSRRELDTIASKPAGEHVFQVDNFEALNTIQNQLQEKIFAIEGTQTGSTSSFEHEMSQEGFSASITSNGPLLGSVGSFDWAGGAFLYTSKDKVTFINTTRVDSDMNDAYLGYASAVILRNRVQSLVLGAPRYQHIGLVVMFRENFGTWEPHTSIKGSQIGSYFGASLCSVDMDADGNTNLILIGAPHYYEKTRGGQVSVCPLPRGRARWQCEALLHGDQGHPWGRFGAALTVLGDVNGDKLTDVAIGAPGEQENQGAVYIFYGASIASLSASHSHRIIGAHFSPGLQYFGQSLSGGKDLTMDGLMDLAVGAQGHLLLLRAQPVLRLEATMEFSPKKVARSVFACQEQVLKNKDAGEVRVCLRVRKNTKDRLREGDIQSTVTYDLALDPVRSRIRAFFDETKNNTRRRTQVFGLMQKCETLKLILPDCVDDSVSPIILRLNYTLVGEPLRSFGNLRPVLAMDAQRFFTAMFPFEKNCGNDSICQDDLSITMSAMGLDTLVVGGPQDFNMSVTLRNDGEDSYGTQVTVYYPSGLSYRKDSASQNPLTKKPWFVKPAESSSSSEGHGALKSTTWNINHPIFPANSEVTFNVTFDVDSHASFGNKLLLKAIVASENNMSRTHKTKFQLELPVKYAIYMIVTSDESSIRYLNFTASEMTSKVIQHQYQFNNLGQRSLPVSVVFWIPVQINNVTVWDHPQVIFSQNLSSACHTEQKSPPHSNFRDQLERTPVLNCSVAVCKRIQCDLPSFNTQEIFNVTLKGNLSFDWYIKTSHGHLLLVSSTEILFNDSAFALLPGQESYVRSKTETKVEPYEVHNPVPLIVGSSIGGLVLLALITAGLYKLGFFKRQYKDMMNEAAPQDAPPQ

Question: For CD47 (from UniProt Q08722 19-323), which binding [1] is on record?
Answer: Its binding is “binds”.

Question: What about the binding [2] of the same molecule?
Answer: The binding was “binds weakly”.

Question: What about the binding [3] of the same molecule?
Answer: Its binding is “binds”.

Question: “β2 integrin subunit of Mac-1 (αMβ2, CD11b/CD18, CR3) (from UniProt P05107 23-769) (receptor)” was tested. Which binding [4] did it give?
Answer: Its binding is “binds”.

B1: CD47 (mouse) (protein, UniProt Q61735 19-303)
chain: QLLFSNVNSIEFTSCNETVVIPCIVRNVEAQSTEEMFVKWKLNKSYIFIYDGNKNSTTTDQNFTSAKISVSDLINGIASLKMDKRDAMVGNYTCEVTELSREGKTVIELKNRTVSWFSPNEKILIVIFPILAILLFWGKFGILTLKYKSSHTNKRIILLLVAGLVLTVIVVVGAILLIPGEKPVKNASGLGLIVISTGILILLQYNVFMTAFGMTSFTIAILITQVLGYVLALVGLCLCIMACEPVHGPLLISGLGIIALAELLGLVYMKFVASNQRTIQPPRNR
Question: For B1, which binding [5] is on record?
Answer: The binding was “binds”.

Reference: doi:10.1101/2022.09.30.510402
